Measured values: PMC6614553
No constants are given. Whether binding was seen depends on the method and setting. In cells and extracts the contact can be indirect. Some entries that bind do so weakly or less than the wild type.

Sequences of proteins named here, by UniProt entry; tags and fusion partners are left off.
UniProt O00487: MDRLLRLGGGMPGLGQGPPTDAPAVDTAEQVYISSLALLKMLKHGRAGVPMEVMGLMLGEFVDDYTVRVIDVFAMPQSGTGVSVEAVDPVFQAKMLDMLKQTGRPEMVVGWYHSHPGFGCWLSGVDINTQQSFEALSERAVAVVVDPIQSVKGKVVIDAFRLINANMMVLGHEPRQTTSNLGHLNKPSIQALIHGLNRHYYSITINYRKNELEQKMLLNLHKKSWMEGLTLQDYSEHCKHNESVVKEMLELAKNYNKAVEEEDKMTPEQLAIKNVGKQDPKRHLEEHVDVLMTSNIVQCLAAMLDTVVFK
UniProt P35998: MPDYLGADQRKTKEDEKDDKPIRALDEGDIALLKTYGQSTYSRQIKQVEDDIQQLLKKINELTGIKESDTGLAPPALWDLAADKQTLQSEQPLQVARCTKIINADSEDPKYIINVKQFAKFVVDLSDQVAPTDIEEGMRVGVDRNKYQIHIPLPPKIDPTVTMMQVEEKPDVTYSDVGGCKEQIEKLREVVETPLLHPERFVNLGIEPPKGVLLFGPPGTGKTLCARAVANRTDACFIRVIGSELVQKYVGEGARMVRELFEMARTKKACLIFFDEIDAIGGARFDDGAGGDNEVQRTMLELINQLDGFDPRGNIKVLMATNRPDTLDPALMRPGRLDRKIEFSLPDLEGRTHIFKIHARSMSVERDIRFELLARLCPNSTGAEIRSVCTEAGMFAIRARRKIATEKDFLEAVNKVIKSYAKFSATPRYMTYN

Molecular target: PSMD14 (Rpn11) containing a tag that facilitates affinity purification (UniProt O00487)
Assay: pull-down; proteasomes affinity purified through the tag on PSMD14 (Rpn11) from cells exposed to hit compounds and from control cells; subunits detected by immunoblot

Substance: PSMC2 (from UniProt P35998 1-433)
- binding: binds
